Values from PubChem BioAssay AID504764 (Drosophila RNAi Screening Center, 2011).

- Purpose: 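Genome-wide screen for regulators of Notch-driven gene expression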 (primary screen)
- System: Drosophila Kc167 cells
- Reagents: long dsRNA against Drosophila genes
- Duration: about 5 days (4 days dsRNA, then 24 h after transfection)
- Treatment: transfection of constitutively active membrane-tethered Notch lacking the extracellular domain, read 24 h later
- Read-out: 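Light from a Notch-responsive E(spl)m3 luciferase reporter under active Notch, with control-promoter and no-Notch reporter wells to normalise; raw counts from paired wells a and b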
- Reading the numbers: induced reporter light, run 1, well a and induced reporter light, run 1, well b: higher = more light from the Notch target reporter with active Notch; control promoter light, run 1, well a and control promoter light, run 1, well b: higher = more light from the viral control promoter (cell number, transfection, viability); uninduced reporter light, run 1, well a: higher = more light from the Notch target reporter without active Notch
- Hit rule: 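Wells with low control signal or poorly matching duplicates excluded; duplicates averaged; per source plate, z beyond ±2 for induced/control log2 ratio or beyond ±1.8 for induced/uninduced marks a hit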
- Meaning of the calls: active = modifier hit (raised or lowered Notch signal); inactive = not a hit
In all, the deposit lists about 22,000 reagents; shown is a random part of those that have a named target and a result. Over the whole deposit, 403 (1.9%) were called active. 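Unnormalised raw counts per well; ratio z-scores behind the hit calls and whether each hit raises or lowers signal are not deposited.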 Names joined by + are all predicted targets of the reagent. Not given: the amount of reagent.

| gene | DRSC id | induced reporter light, run 1, well a | induced reporter light, run 1, well b | control promoter light, run 1, well a | control promoter light, run 1, well b | uninduced reporter light, run 1, well a | call |
| --- | --- | --- | --- | --- | --- | --- | --- |
| CG13884 | DRSC08354 | 1.38e5 | 1.22e5 | 1.87e5 | 2.50e5 | 8895 | inactive |
| CG12655 | DRSC20678 | 76960 | 79185 | 91445 | 1.31e5 | 10165 | inactive |
| rau | DRSC03125 | 1.87e5 | 2.10e5 | 1.95e5 | 1.84e5 | 12820 | inactive |
| slx1 | DRSC12290 | 1.07e5 | 1.12e5 | 97155 | 93650 | 6310 | inactive |
| smog | DRSC00334 | 1.38e5 | 1.27e5 | 1.13e5 | 84645 | 7070 | active |
| smog | DRSC00335 | 8915 | 7165 | 8805 | 7410 | 3820 | inactive |
| CG31683 + CG18858 | DRSC02703 | 39380 | 40200 | 37240 | 35440 | 2750 | inactive |
| CRIF | DRSC11811 | 1.26e5 | 1.05e5 | 1.12e5 | 93075 | 6825 | inactive |
| FANCI | DRSC06416 | 1.84e5 | 2.02e5 | 2.19e5 | 2.32e5 | 14665 | inactive |
| CR18166 | DRSC17260 | 62445 | 64700 | 80865 | 93030 | 4538 | inactive |
| CR18166 | DRSC18147 | 1.41e5 | 1.43e5 | 2.54e5 | 3.14e5 | 11730 | inactive |
| Fkbp12 | DRSC07425 | 1.16e5 | 1.03e5 | 1.38e5 | 1.41e5 | 9305 | inactive |
| CG1983 | DRSC15410 | 1.49e5 | 1.24e5 | 1.74e5 | 1.79e5 | 10970 | inactive |
| CG14346 | DRSC00376 | 1.01e5 | 1.07e5 | 1.04e5 | 68260 | 8592 | inactive |
| CG7794 | DRSC16313 | 1.44e5 | 1.34e5 | 1.57e5 | 1.58e5 | 10395 | inactive |
| cnn | DRSC05422 | 2.07e5 | 2.12e5 | 2.77e5 | 2.42e5 | 18095 | inactive |
| cnn | DRSC07596 | 95720 | 1.05e5 | 1.36e5 | 1.47e5 | 9120 | inactive |
| Eaf6 | DRSC09901 | 2.48e5 | 2.69e5 | 2.98e5 | 3.51e5 | 12660 | inactive |
| CG5157 | DRSC10488 | 2.03e5 | 1.85e5 | 2.53e5 | 1.94e5 | 8970 | inactive |
| rho-4 | DRSC19761 | 1.89e5 | 1.61e5 | 1.97e5 | 1.96e5 | 13845 | inactive |
| rho-4 | DRSC19762 | 97280 | 1.02e5 | 1.57e5 | 1.38e5 | 7355 | inactive |
| B4 | DRSC01868 | 2.38e5 | 2.09e5 | 2.10e5 | 2.10e5 | 17565 | inactive |
| B4 | DRSC03175 | 1.56e5 | 1.56e5 | 1.36e5 | 1.39e5 | 11815 | inactive |
| CG14983 | DRSC08441 | 1.20e5 | 99720 | 1.60e5 | 1.37e5 | 8515 | inactive |
| CG14931 | DRSC02413 | 1.27e5 | 1.89e5 | 72315 | 1.14e5 | 17170 | inactive |

Reformatted: results already given
gene	DRSC id	induced reporter light, run 1, well a	induced reporter light, run 1, well b	control promoter light, run 1, well a	control promoter light, run 1, well b	uninduced reporter light, run 1, well a	call
CG1983	DRSC15410	1.49e5	1.24e5	1.74e5	1.79e5	10970	inactive
CG14346	DRSC00376	1.01e5	1.07e5	1.04e5	68260	8592	inactive
CG7794	DRSC16313	1.44e5	1.34e5	1.57e5	1.58e5	10395	inactive
cnn	DRSC05422	2.07e5	2.12e5	2.77e5	2.42e5	18095	inactive

The list goes on:
| gene | DRSC id | induced reporter light, run 1, well a | induced reporter light, run 1, well b | control promoter light, run 1, well a | control promoter light, run 1, well b | uninduced reporter light, run 1, well a | call |
| --- | --- | --- | --- | --- | --- | --- | --- |
| fd19B | DRSC20688 | 78480 | 78770 | 97355 | 1.29e5 | 9445 | inactive |
| VAChT + ChAT | DRSC13312 | 89930 | 76165 | 1.10e5 | 1.16e5 | 10930 | inactive |
| CG2641 | DRSC15441 | 55005 | 60135 | 57135 | 46285 | 4305 | inactive |
| CG15097 | DRSC06526 | 38525 | 48470 | 58970 | 70375 | 3455 | inactive |
| CG10465 | DRSC04848 | 1.88e5 | 1.49e5 | 1.71e5 | 1.72e5 | 13182 | inactive |
| CG15760 | DRSC19725 | 34730 | 40205 | 42510 | 34085 | 2532 | inactive |
| CG13837 | DRSC14687 | 1.65e5 | 1.93e5 | 1.80e5 | 1.90e5 | 13405 | inactive |
| tai | DRSC02207 | 12925 | 18255 | 10070 | 8378 | 4745 | inactive |
| tai | DRSC02673 | 1.24e5 | 1.31e5 | 67120 | 84965 | 19710 | inactive |
| Tpr2 | DRSC03461 | 2.26e5 | 2.00e5 | 2.55e5 | 2.39e5 | 19300 | inactive |
| Rpt5 | DRSC16842 | 38820 | 30420 | 26405 | 22080 | 1788 | active |
| Tdg | DRSC17119 | 69770 | 73970 | 96030 | 1.02e5 | 6120 | inactive |
| Tdg | DRSC17169 | 1.30e5 | 1.07e5 | 1.58e5 | 1.34e5 | 8035 | inactive |
| Ctl2 | DRSC14423 | 1.81e5 | 2.17e5 | 2.29e5 | 2.22e5 | 12545 | inactive |
| CG13558 | DRSC04196 | 1.79e5 | 1.42e5 | 1.55e5 | 1.43e5 | 11415 | inactive |
| CG34328 | DRSC19256 | 79250 | 72920 | 83845 | 90475 | 7060 | inactive |
| CG8117 | DRSC20082 | 1.03e5 | 1.09e5 | 1.45e5 | 1.10e5 | 12630 | inactive |
| srp | DRSC13125 | 1.65e5 | 1.31e5 | 1.39e5 | 1.83e5 | 9645 | inactive |
| srp | DRSC17068 | 11175 | 12632 | 10680 | 11780 | 2205 | inactive |
| CG18301 | DRSC02662 | 1.42e5 | 1.63e5 | 72240 | 93660 | 19955 | inactive |
| CG2291 | DRSC06836 | 2.10e5 | 2.24e5 | 2.57e5 | 2.32e5 | 19645 | inactive |
| CG12104 | DRSC08254 | 74795 | 87030 | 1.15e5 | 1.43e5 | 7080 | inactive |
| BG642163 | DRSC00342 | 1.68e5 | 1.45e5 | 1.80e5 | 1.64e5 | 10220 | inactive |
| BG642163 | DRSC00343 | 1.90e5 | 1.56e5 | 1.87e5 | 1.21e5 | 10715 | inactive |
| ash1 | DRSC11325 | 63795 | 74530 | 43495 | 49125 | 6955 | inactive |
